The experiment concerns the target HA-tagged Q330X NEMO (human) (UniProt Q9Y6K9). Briefly: co-IP.

Amino acid sequences for entries named in this document (tags omitted). A change or cut given only in a name is not applied to a line headed by its entry. Residues count along the entry.
UniProt Q9Y6K9, 2-329: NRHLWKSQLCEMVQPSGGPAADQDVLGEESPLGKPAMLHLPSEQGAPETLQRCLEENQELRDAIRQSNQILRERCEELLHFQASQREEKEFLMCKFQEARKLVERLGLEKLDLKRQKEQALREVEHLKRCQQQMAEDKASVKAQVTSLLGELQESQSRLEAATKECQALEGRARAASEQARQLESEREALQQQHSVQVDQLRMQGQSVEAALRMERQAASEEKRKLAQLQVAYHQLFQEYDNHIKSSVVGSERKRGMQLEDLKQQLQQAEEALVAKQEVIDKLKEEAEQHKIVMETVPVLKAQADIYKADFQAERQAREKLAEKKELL
UniProt Q96EP0, whole entry: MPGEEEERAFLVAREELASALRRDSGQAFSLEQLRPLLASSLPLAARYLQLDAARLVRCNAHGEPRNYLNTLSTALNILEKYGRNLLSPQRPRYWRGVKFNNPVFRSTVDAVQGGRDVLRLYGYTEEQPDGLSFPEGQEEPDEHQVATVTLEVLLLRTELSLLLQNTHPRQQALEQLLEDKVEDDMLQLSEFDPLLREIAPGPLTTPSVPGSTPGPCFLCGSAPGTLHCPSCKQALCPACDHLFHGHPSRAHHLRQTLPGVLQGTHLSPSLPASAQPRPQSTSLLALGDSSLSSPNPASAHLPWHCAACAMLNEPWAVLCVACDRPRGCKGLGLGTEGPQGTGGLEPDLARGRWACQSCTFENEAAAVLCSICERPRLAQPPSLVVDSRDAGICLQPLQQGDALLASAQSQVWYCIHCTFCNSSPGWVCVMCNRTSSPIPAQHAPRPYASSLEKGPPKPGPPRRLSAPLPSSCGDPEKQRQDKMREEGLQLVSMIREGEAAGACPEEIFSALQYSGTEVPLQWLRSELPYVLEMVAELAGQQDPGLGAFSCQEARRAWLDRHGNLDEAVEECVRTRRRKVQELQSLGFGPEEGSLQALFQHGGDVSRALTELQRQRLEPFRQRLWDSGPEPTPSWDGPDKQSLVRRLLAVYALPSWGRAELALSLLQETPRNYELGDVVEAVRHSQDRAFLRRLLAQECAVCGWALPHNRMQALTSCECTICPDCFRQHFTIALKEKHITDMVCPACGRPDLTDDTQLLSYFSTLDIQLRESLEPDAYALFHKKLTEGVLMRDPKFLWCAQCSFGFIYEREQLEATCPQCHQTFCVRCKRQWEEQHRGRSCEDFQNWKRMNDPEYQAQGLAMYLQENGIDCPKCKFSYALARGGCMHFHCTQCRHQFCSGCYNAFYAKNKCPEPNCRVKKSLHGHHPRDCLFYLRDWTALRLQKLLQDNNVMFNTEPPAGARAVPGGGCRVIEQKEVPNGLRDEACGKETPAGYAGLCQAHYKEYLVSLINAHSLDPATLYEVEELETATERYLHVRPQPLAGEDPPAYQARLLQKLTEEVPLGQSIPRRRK

Results are given in words; binding and its absence hold for the method and conditions named. Binding seen in cells or lysates may run through a third protein.

As to “endogenous p62/SQSTM1 (from UniProt Q13501 1-440)”, the binding result is listed as “no binding”.
“endogenous HOIP (from UniProt Q96EP0 1-1072)”: the binding entry is recorded as “no binding”.

The values are drawn from publication doi:10.1101/2023.06.05.543428.
